T1: hnRNPM-GFP (heterogeneous nuclear ribonucleoprotein M, C-terminally GFP-tagged) (UniProt P52272)
T1 sequence: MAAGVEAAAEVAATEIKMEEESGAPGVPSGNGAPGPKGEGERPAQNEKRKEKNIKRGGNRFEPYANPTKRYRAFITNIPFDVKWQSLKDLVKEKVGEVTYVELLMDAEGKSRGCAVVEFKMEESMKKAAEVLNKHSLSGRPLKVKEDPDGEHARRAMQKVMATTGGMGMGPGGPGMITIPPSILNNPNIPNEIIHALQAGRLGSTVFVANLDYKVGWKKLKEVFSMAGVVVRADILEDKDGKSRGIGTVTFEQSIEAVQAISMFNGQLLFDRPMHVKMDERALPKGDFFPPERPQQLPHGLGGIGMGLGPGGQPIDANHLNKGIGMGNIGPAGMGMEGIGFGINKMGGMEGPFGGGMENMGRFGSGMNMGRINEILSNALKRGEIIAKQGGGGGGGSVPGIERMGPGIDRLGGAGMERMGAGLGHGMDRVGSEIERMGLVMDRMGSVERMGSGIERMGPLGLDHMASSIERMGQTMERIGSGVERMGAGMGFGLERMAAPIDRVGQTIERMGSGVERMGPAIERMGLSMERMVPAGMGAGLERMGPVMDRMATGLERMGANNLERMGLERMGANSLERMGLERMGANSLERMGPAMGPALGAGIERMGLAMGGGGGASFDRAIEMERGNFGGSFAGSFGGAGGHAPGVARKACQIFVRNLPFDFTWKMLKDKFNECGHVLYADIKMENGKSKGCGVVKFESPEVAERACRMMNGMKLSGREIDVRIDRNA

B1: IKKβ (printed as IKKý; IKBKB), endogenous in THP-1 (protein, UniProt O14920 1-756)
chain: MSWSPSLTTQTCGAWEMKERLGTGGFGNVIRWHNQETGEQIAIKQCRQELSPRNRERWCLEIQIMRRLTHPNVVAARDVPEGMQNLAPNDLPLLAMEYCQGGDLRKYLNQFENCCGLREGAILTLLSDIASALRYLHENRIIHRDLKPENIVLQQGEQRLIHKIIDLGYAKELDQGSLCTSFVGTLQYLAPELLEQQKYTVTVDYWSFGTLAFECITGFRPFLPNWQPVQWHSKVRQKSEVDIVVSEDLNGTVKFSSSLPYPNNLNSVLAERLEKWLQLMLMWHPRQRGTDPTYGPNGCFKALDDILNLKLVHILNMVTGTIHTYPVTEDESLQSLKARIQQDTGIPEEDQELLQEAGLALIPDKPATQCISDGKLNEGHTLDMDLVFLFDNSKITYETQISPRPQPESVSCILQEPKRNLAFFQLRKVWGQVWHSIQTLKEDCNRLQQGQRAAMMNLLRNNSCLSKMKNSMASMSQQLKAKLDFFKTSIQIDLEKYSEQTEFGITSDKLLLAWREMEQAVELCGRENEVKLLVERMMALQTDIVDLQRSPMGRKQGGTLDDLEEQARELYRRLREKPRDQRTEGDSQEMVRLLLQAIQSFEKKVRVIYTQLSKTVVCKQKALELLPKVEEVVSLMNEDEKTVVRLQEKRQKELWNLLKIACSKVRGPVSGSPDSMNASRLSQPGQLMSQPSTASNSLPEPAKKSEELVAEAHNLCTLLENAIQDTVREQDQSFTALDWSWLQTEEEEHSCLEQAS

No constants are given. Whether binding was seen depends on the method and setting. In cells and extracts the contact can be indirect. These calls come from enrichment with a bait or labelling near it, and not all partners need be listed. Tags and fused reporters may be left off the sequences shown.

The target in the experiment is T1, hnRNPM-GFP (heterogeneous nuclear ribonucleoprotein M, C-terminally GFP-tagged). In words: affinity purification with mass spectrometry.
“DDX3X, endogenous in THP-1 (from UniProt O00571 1-662)”: the binding result is reported as “binds”.

In the case of “DNA-dependent protein kinase catalytic subunit (PRKDC), endogenous in THP-1 (from UniProt P78527 1-4128)”, the binding result is “binds”.

“ELAV-like protein 1 (ELAVL1), endogenous in THP-1 (from UniProt Q15717 1-326)”: the binding result is recorded as “binds”.

In the case of “pre-mRNA-splicing factor ATP-dependent RNA helicase DHX15 (DHX15), endogenous in THP-1 (from UniProt O43143 1-795)”, the binding entry is on record as “binds”.

For “zinc finger CCCH-type antiviral protein 1 (ZC3HAV1), endogenous in THP-1 (from UniProt Q7Z2W4 1-902)”, the binding result is listed as “binds”.

As to B1, the binding entry was “binds”.

The record behind these values is paper doi:10.1101/2023.06.23.545108.
